Experimental data from US20170158735A1 ("IVIX" Ltd., priority 2012, published 2017).
Square brackets hold non-standard residues; d marks the D form. Ends that are not written are not given here. * marks the point of attachment. Arg(NO2) = N=C(NCCC[C@H](N)C(=O)O)N[N+](=O)[O-]; Boc = CC(C)(C)OC(=O)*; OBn = c1ccc(CO*)cc1

Assay: general procedure: solution-phase peptide synthesis; DCC; DCC/BT; OSu active ester
Conditions: acetate; for purity (crude or final not stated): chromatographic (Table 2, Tr and purity %)

## Boc-P[Arg(NO2)]PGP-OBn
Coupling step
  step yield: 67.8%

## Boc-TK(Boc)PF-OH
Coupling step
  step yield: 69.0%

## Thr-Lys-Pro-Arg (TKPR)
Whole synthesis
  purity (crude or final not stated): 94%

## Boc-[Arg(NO2)]PGP-OBn
Coupling step
  step yield: 85%

## Boc-PRPGP
Late stage modification step
  step yield: 89%

## Arg-Pro-Gly-Pro (RPGP)
Late stage modification step
  step yield: 85%
  purity (crude or final not stated): 85%

## Thr-Lys-Pro-Phe (TKPF)
Late stage modification step
  step yield: 87%
  purity (crude or final not stated): 94%

## Thr-Lys-Pro-Arg-Pro (TKPRP)
Whole synthesis
  purity (crude or final not stated): 97%

## TKPRPF
Whole synthesis
  purity (crude or final not stated): 96%

## Pro-Arg-Pro-Gly-Pro (PRPGP)
Late stage modification step
  step yield: 75%
  purity (crude or final not stated): 89%

## Boc-RPGP
Late stage modification step
  step yield: 89%
